Results are given in words; binding and its absence hold for the method and conditions named. In cells and extracts the contact can be indirect. A result given as binding can be weak or reduced; the word gives no strength. For part of these data: Tags and fused reporters may be left off the sequences shown.
B1: HMP-1/α-catenin, endogenous (protein, UniProt P90947 1-927)
chain: MPANGNSHAYFNIDEVRSKNVLKQITQLINEVTNITETFPLKPGQTTEGLVATLDAAVANFLQTGSFAISKCPIANSDPRAIDLLHEALGAVQDTGQVMIQTGRDFVRDSTSTNKRAIATNSGRNLLTAVAKFLILADSIDVKVIVDKVDEVRETAHQMIEADTKIKVDDLYNLLISQIEELDITVRRRAIDLVKPNQRDDLLAARSALRQTAPLLYTSTRTFVRHPEHEEARRNRDYTADEMHSALNALESVLNGQQPKVTFSEYGRIGDLINEIDTFQNRIEIDPAHYRRGTDRPDLEGHCERIVSGSASIADAESTRENRKQKIVAECNNLRQALQELLTEYEKSTGRRDDNDDIPLGIAEVHKRTKDLRRHLRRAIVDHISDAFLDTRTPLILLIEAAKEGHEENTRYRSKMFQEHANEIVSVARLSCQLSSDVESVSVIQHTAAQLEKLAPQVAQAAILLCHQPTSKTAQENMETYKNAWFDKVRLLTTALDNITTLDDFLAVSEAHIVEDCERGIKGITANASTPDENAANCETVDCAAGSIRGRALRVCDVVDAEMDFLQNSEYTETVKQAVRILKTQRVDQFAERASALANRQEAHGLTWDPKTKEEEMNEFINACTLVHDAVKDIRHALLMNRSMNDVDSDVEYEADGVGAANADANRTISEQENQQNLMRRLPEEEKKKIQAQIDIFKVTQTRFEREVAKWDETGNDIISLANNMCKIMMSMTEFTRGCGPLKTTMDVIRAAQEISLNGSKLNALARQIGEESADSQTKKDLLAYLSQITLYCQQLNICSKVKADVTQVGNELVVSALDSAMSLIQTARNLLTAVVQTVKAAYIASTKFRRPNANSVRVEWRMAPPKKQPLIRPQKNNAIIRRASERRPLQPAKVLAEFTRNEIETGRDSDDEELDRRHQQRINGRL
B2: ZYX-1/zyxin, endogenous (protein, UniProt Q9U3F4 1-603)
chain: MGPPPPPPPPPLLPSGEILPSRKWKTEDAPRRNNHPAPAPPKPSRPTVDASALQHAAARLRKTGYNEPVRGDVENLSDGRLDRPHQQLPDGDRTYRANLQQLAQPKTRAEIPSPPTYSNQPRPLGDFHRDPNALSQFQQSREALLSSTSPTSNYSPINKFSSSTLTQYANKSPSPPSFGNSNSEATYVSPYSSKHSYPTNFRSYHKDDDYFNNTATTATTTTSSNSLNENNNSNKYGNKETVLQWSEPYDPSKIRRSQSPIRNAREMIHEYSTTNYVTEVQQPPPPPPDLYQRMTQARTFLQNSLAKQLRDEGLTESQKAANRNQTGALSASSSIPFDASQIVKNSYNGDEVDHLVHQMRTKLNQPADTSPSIVQYPRRQAPDSSRANYSATTSTSFSSSTTRKIMNINICVGCGKEITGDQPGCNAMNQIFHVDCFKCGQCSKTLAGASFYNIDDKPTCEGCYQNSLEKCTACNRAISDKLLRACGGVYHVNCFVCFSCKKSLDGIPFTLDKDNNVHCVPCFHDKFAPRCALCSKPIVPQDGEKESVRVVAMDKSFHVDCYKCEDCGMQLSSKLEGQGCYPIDNHLLCKTCNGNRLRVVSST
B3: ZYX-1-MBP (protein, UniProt Q9U3F4 1-603)
chain: B2 chain

Tests used:
TES-1::GFP (C. elegans) = TES-1::GFP (C. elegans) (UniProt Q17525); experiment: co-IP
GST-TES-1 (C. elegans) = experiment: pull-down

Binder | binding (TES-1::GFP (C. elegans)) | binding (GST-TES-1 (C. elegans))
B1 | no binding | –
B2 | binds | –
B3 | – | binds weakly

Source: publication doi:10.1101/2021.09.30.462556
